Data on one substance can be found in US20150216970A1 (Genentech, published 2015).

Sequences of proteins named here, by UniProt entry; tags and fusion partners are left off. Residues count along the entry.
UniProt P86176, residues 29-249: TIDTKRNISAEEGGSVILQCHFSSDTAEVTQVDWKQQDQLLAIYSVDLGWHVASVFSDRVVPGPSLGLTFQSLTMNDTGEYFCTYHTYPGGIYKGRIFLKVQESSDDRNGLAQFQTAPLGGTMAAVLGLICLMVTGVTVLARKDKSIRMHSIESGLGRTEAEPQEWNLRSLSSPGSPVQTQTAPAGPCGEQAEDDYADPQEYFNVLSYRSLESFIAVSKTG

No constants are given. Whether binding was seen depends on the method and setting. Binding seen in cells or lysates may run through a third protein. Some results given as binding are weak or reduced against the parent protein; the word gives no strength.

For this test, the target named is T1, CD226, endogenous, on primary C57BL6/J mouse CD8+ T cells (mouse) (UniProt Q8K4F0).
T1 sequence (looked up): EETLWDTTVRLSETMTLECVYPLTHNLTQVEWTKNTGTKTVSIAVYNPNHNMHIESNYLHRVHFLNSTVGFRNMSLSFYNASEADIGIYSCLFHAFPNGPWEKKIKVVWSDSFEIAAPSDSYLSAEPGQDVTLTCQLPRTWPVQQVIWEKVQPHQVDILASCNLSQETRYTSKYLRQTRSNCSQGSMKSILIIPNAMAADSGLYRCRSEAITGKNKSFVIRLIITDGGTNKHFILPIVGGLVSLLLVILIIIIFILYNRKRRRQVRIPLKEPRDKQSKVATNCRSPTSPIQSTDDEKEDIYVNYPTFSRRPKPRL
Description: co-immunoprecipitation from lysates of stimulated C57BL6/J CD8+ T cells (IP anti-TIGIT, probe anti-CD226).

As for “TIGIT, endogenous, on primary C57BL6/J mouse CD8+ T cells (from UniProt P86176 29-249) (receptor)”, the binding entry is listed as “binds”.
